Data reported in article PMC5109252.
These are yes or no findings as the source states them, for the method shown. Binding can be weak; no strength is given. Sequences can lack the tags named with a protein.

By UniProt entry, the sequences of proteins in these tests, tags left out. Where a name states a change or a piece, a line headed by the entry shows the natural chain unless it says otherwise.
UniProt P17948: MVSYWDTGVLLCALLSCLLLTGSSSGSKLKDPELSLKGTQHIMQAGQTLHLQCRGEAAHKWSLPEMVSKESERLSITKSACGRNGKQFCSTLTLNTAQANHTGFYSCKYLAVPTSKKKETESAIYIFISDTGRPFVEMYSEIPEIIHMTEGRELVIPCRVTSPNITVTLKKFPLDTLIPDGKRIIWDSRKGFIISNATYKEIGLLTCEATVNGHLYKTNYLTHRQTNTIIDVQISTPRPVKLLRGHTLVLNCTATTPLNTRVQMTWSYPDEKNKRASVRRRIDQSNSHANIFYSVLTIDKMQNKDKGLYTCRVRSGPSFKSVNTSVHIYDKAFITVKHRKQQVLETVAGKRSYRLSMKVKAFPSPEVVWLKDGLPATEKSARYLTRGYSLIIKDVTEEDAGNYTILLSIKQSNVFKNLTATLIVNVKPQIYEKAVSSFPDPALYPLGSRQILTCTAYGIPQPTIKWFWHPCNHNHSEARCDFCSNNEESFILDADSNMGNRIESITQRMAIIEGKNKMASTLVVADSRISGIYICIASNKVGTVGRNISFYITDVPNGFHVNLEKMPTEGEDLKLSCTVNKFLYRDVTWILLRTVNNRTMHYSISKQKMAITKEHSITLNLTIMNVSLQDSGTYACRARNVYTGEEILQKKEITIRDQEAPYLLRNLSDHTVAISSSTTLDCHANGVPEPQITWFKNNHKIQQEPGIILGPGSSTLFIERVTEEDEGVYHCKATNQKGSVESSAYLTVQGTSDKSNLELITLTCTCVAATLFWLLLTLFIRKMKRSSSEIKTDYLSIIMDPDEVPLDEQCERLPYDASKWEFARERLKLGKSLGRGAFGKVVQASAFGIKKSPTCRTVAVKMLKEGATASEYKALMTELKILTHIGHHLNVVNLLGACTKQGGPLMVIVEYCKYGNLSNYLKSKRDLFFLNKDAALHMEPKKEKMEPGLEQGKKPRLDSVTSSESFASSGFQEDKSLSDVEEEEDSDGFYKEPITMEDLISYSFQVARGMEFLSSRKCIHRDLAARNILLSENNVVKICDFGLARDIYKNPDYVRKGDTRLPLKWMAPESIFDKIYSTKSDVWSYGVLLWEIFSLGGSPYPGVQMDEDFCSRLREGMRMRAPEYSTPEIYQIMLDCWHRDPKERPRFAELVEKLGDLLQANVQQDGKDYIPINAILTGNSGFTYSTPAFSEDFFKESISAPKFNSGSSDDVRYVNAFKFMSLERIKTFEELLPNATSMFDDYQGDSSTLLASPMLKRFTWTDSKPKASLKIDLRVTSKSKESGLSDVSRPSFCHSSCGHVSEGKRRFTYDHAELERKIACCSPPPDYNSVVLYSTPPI
UniProt P35968: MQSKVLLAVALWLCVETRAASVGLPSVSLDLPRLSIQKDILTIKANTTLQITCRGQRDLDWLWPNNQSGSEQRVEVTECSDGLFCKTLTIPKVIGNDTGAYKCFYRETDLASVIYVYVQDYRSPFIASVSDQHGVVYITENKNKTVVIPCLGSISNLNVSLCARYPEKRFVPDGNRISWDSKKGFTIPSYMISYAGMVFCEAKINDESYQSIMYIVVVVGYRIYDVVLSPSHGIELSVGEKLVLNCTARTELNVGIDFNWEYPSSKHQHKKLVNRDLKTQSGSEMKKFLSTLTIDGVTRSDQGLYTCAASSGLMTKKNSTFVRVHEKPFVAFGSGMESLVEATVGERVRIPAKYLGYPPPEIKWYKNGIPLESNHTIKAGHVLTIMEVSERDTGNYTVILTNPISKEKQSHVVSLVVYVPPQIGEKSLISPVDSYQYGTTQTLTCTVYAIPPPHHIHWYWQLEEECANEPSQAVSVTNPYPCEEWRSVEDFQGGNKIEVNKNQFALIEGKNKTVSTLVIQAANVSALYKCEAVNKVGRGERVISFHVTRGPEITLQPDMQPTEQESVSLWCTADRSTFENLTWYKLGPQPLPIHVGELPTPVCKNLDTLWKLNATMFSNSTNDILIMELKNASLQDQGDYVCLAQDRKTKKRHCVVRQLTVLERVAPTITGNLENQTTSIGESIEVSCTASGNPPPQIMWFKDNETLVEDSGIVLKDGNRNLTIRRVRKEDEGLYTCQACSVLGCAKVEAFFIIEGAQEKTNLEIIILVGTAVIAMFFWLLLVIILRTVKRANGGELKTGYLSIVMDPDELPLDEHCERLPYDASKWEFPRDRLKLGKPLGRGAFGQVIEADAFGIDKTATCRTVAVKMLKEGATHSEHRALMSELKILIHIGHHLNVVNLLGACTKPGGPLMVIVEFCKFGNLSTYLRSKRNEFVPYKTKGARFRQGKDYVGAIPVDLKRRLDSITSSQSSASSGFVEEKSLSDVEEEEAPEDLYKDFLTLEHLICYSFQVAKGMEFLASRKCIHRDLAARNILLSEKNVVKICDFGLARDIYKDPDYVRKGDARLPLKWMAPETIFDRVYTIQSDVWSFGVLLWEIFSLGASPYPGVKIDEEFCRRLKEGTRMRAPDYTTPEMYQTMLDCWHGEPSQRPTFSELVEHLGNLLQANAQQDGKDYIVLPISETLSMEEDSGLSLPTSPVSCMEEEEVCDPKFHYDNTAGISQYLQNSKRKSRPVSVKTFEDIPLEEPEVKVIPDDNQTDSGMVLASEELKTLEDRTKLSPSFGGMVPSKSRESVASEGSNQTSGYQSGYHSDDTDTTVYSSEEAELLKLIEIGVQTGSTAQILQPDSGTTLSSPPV

Legend:
[1] = biological target: FLT1 (VEGFR1) printed on the human ProtoArray (human) (UniProt P17948); test: peptide or protein array; Human ProtoArray Version 5.0 (~9500 recombinant proteins printed) probed with 80 ug purified His-SETD3 in probing buffer (0.1% Tween 20, 1% BSA, 10% PBS), 1.5 h; detected with anti-SETD3 and Alexa Fluor 647 anti-rabbit IgG; BSA-probed array as negative control; hits Z-score >3; two independent experiments; both purified
[2] = biological target: KDR (VEGFR2) printed on the human ProtoArray (human) (UniProt P35968); test: as above

binding [1]: binds
binding [2]: binds
B1: recombinant His-SETD3 (enzyme, UniProt Q86TU7 1-594)
chain: MGKKSRVKTQKSGTGATATVSPKEILNLTSELLQKCSSPAPGPGKEWEEYVQIRTLVEKIRKKQKGLSVTFDGKREDYFPDLMKWASENGASVEGFEMVNFKEEGFGLRATRDIKAEELFLWVPRKLLMTVESAKNSVLGPLYSQDRILQAMGNIALAFHLLCERASPNSFWQPYIQTLPSEYDTPLYFEEDEVRYLQSTQAIHDVFSQYKNTARQYAYFYKVIQTHPHANKLPLKDSFTYEDYRWAVSSVMTRQNQIPTEDGSRVTLALIPLWDMCNHTNGLITTGYNLEDDRCECVALQDFRAGEQIYIFYGTRSNAEFVIHSGFFFDNNSHDRVKIKLGVSKSDRLYAMKAEVLARAGIPTSSVFALHFTEPPISAQLLAFLRVFCMTEEELKEHLLGDSAIDRIFTLGNSEFPVSWDNEVKLWTFLEDRASLLLKTYKTTIEEDKSVLKNHDLSVRAKMAIKLRLGEKEILEKAVKSAAVNREYYRQQMEEKAPLPKYEESNLGLLESSVGDSRLPLVLRNLEEEAGVQDALNIREAISKAKATENGLVNGENSIPNGTRSENESLNQESKRAVEDAKGSSSDSTAGVKE
